Test results published in US20090136500A1.
Results are given in words; binding and its absence hold for the method and conditions named. Binding calls can cover weak binding; strength is not graded here.

Columns and labels:
rabbit PAI-1 (rabbit) [1] = test: P-ELISA
rabbit PAI-1 (rabbit) [2] = test: P-ELISA (FIG. 12 legend)
rabbit PAI-1 (rabbit) [3] = test: P-ELISA: biotin-labeled PAI-1 on streptavidin/Neutravidin coated wells, HRP-conjugated secondary antibody, O.D. 450

Measured: binding

B1: CT140 (humanized version of murine monoclonal antibody 33B8, IgG4 with the hinge of IgG1) (antibody, V domains shown)
VH: QVQLVQSGAEVKKPGASVKVSCKASGYTFTNYGMNWVRQAPGQGLEWMGWINTYTGEPTYTDDFKGRFTMTLDTSISTAYMELSRLRSDDTAVYYCAKDVSGFVFDYWGQGTLVTVSS
VL: DIVMTQSPDSLAVSLGERATINCKSSQSLLNIIKQKNCLAWYQQKPGQPPKLLIYWASTRESGVPDRFSGSGSGTDFTLTISSLQAEDVAVYYCQQYYSYPYTFGQGTKLEIKR
binds: all assays above
